Results are given in words; binding and its absence hold for the method and conditions named. In cells and extracts the contact can be indirect. Some entries that bind do so weakly or less than the wild type.
Legend:
Assay in all cases: co-IP; tandem-affinity purification from yeast lysate (IgG Sepharose, TEV elution, Calmodulin Sepharose, EGTA elution); 50 mM Tris-HCl pH 7.5, 100 mM NaCl, 1.5 mM MgCl2, 0.1% NP-40, 1 mM DTT; eluates analysed by western blotting; for Figure 8C from wild-type and Δrbp95 strains
Arx1-TAP (S. cerevisiae) = target: T1, Arx1-TAP (S. cerevisiae) (UniProt Q03862)
T1 sequence: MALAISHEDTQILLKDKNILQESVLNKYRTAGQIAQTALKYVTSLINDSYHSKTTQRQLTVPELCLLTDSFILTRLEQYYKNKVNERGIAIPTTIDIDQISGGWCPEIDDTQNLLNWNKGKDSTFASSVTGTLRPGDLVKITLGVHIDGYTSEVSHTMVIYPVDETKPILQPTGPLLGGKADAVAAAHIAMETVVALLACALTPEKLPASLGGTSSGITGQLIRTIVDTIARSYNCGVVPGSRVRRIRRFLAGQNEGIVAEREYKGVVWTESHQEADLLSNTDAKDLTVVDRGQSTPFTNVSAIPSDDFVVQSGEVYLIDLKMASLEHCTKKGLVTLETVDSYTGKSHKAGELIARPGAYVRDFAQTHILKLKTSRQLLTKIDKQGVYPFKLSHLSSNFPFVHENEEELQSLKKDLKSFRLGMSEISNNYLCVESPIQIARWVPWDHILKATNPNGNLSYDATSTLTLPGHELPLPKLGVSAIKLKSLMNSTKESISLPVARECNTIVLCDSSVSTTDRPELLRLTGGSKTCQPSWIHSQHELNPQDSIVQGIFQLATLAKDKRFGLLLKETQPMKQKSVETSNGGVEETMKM

Noc2-TAP (S. cerevisiae) = target: T2, Noc2-TAP (S. cerevisiae) (UniProt P39744)
T2 sequence: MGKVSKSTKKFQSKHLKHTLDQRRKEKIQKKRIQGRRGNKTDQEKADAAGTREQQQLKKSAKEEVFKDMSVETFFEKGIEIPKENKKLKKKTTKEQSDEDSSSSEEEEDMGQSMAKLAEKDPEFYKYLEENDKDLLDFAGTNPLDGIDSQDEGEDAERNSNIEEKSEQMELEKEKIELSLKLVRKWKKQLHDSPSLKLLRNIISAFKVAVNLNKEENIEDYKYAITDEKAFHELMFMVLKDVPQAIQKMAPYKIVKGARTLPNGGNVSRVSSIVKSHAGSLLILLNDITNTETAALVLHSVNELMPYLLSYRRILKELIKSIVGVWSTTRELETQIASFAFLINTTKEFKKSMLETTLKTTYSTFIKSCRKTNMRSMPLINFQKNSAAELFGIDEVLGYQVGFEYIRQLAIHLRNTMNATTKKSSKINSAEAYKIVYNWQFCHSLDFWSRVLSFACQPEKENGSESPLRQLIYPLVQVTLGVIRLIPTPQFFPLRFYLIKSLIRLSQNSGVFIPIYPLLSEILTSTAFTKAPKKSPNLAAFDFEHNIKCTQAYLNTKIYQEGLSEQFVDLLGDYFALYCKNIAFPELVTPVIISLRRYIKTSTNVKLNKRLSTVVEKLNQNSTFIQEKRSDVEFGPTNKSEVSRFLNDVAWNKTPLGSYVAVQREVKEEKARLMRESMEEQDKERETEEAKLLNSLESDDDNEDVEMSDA

Ssf1-TAP (S. cerevisiae) = target: T3, Ssf1-TAP (S. cerevisiae) (UniProt P38789)
T3 sequence: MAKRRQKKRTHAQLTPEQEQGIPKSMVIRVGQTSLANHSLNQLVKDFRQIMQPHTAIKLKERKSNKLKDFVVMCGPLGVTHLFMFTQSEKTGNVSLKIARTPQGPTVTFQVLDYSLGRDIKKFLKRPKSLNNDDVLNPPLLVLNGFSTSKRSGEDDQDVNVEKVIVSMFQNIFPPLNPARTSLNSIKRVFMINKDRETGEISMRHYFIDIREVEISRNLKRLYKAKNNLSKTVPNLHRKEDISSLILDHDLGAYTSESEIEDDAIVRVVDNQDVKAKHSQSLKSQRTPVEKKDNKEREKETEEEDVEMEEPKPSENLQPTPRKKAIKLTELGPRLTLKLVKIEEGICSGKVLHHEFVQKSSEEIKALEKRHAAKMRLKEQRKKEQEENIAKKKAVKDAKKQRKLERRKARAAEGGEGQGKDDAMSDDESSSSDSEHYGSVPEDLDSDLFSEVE

B1: Rbp95 (Ycr016w) (protein, UniProt P25617 1-290)
chain: MSENHVPAWKRIALKRQTISSGDESKEKGQSNLIDDDPLNITTHLSTGNLTKKEKKRIINGESKSSTKKGKRVSKPGTKKKEKLSKDEKNSKKNKILKDQLRYLIEFFRTKSESKFPTGILELESVKENYGDSLIKDEPSESGVVEVWKFSKQKQNWLIKHFFNLDEIPSVYNDLLLLYFRDLQGKSKEELISKCKGKLKQWNDYVEDQETKIKALIAEDKASEPINGEEKEEGEKDGNAEQGKQKEVQDEQEEVQMPNKELVQRSLKLLEIWKNDDSEQIELKNFFVDV
- binding (Arx1-TAP (S. cerevisiae)): binds weakly
- binding (Noc2-TAP (S. cerevisiae)): binds
- binding (Ssf1-TAP (S. cerevisiae)): binds
